# Screen size: about 1,600 compounds; about 20 (1%) showed an effect of 50% or more. The list shows a part of the results.
# System: T1, E. coli pLC1021 (luc-trpAt trans-translation reporter)
# T1 construct: pLC1021 luc-trpAt reporter strain
# Design: species or system Escherichia coli pLC1021; luc-trpAt non-stop luciferase reporter; luminescence rises when trans-translation is inhibited; normalized to KKL-35 and DMSO
# Details: 2 h, 20 µM
# Experimental: The luciferase screen was performed as previously described ([16]). […] 48 µL of cells was transferred to white 96-well plates, and 2 µL DMSO or 20 µM compound, or 20 µM KKL-35 was added. Plates were sealed with adhesive film, vortexed gently to mix, and incubated at room temperature for 2 h. 50 µL Bright-Glo reagent (Promega, Madison, WI) was added to each well, and the plates were sealed with adhesive film, vortexed vigorously, and incubated for an additional 10 min at room temperature. Luminescence was measured at 560 nm using a SpectraMax i3 microplate reader and readings for each plate were normalized to the average of three KKL-35-treated wells (positive control) and three DMSO-treated wells (negative control) within the plate to correct for plate-to-plate and day-to-day variations. Results from at least two biological repeats were averaged, and GraphPad Prism was used to plot the data. We screened a library of 1,601 anti-tubercular small molecules for their ability to inhibit trans-translation using a luciferase reporter in Escherichia coli. In this luc-trpAt reporter, the firefly luciferase gene has a trpA transcriptional terminator before the stop codon, such that luciferase is translated from a non-stop mRNA ([16]). When trans-translation is active, the luciferase will be tagged and degraded, but when trans-translation is inhibited, active luciferase will accumulate, resulting in a luminescent signal when luciferin is added. Luciferase activity was measured after growth in the presence of compounds from the library at 20 µM, using the known trans-translation inhibitor KKL-35 as a positive control (Fig. 1A) ([16], [17]). Compounds with activity one standard deviation above the median were scored as positive (Fig. S1 and Table S1).
row,Compound,% activation [%]
1,Cc1ccc(S(=O)(=O)NC(=O)Oc2cccc3cccnc23)cc1 [KKL-0779],13
2,CCCCN1C(=O)NC(=O)/C(=C(O)\C=C\c2ccc3c(c2)OCO3)C1=O [KKL-1019],13
3,Cn1cc(NC(=O)c2cc(NC(=O)CNC(=N)N)cn2C)cc1C(=O)NCCC(=N)N [KKL-1676],0
4,COc1cccc(OCCNC(=O)c2cc([N+](=O)[O-])cc([N+](=O)[O-])c2)c1 [KKL-1137],10
5,CN1C(=O)C(=C(Nc2ccccc2)SCc2ccc(Cl)cc2)C(=O)N(C)C1=O [KKL-0988],10
6,CN(C)c1ccc(/C=C/C=C2/C(=O)NC(=O)N(c3ccccc3)C2=O)cc1 [KKL-0969],0
7,Cc1cc(C)c(N2C(=O)NC(=O)/C(=C\c3ccc[nH]3)C2=O)c(C)c1 [KKL-0769],0
8,CN(C)CCC(=O)c1ccc(Br)cc1 [KKL-0775],0
9,CN1C(=O)C(=C(Nc2ccccc2)SCc2ccccc2Cl)C(=O)N(C)C1=O [KKL-0897],0
10,O=C1NC(=O)N(Cc2ccccc2Cl)C(=O)/C1=C/c1ccc[nH]1 [KKL-1089],5
11,Cc1ccccc1-n1ncc2c([N+](=O)[O-])cc([N+](=O)[O-])cc21 [KKL-1128],0
12,O=[N+]([O-])c1ccc(-n2nnnc2-c2ccccc2)c([N+](=O)[O-])c1 [KKL-1067],0
13,CSCC[C@H](NC(=O)c1cc([N+](=O)[O-])cc([N+](=O)[O-])c1)c1nc2ccccc2[nH]1 [KKL-0838],0
14,O=C1N(Cc2ccccc2Cl)c2ccc(Br)cc2C1(O)c1c[nH]c2ccccc12 (stereo not shown) [KKL-1587],0
15,Nc1c2c(nc3sc4c(c13)CCCC4)CCCC2 [KKL-1409],0
16,COc1ccc(C2(CNC(=O)c3cc([N+](=O)[O-])cc([N+](=O)[O-])c3)CCCC2)cc1OC [KKL-1661],0
17,O=C1NC(=O)N(CCc2ccccc2)C(=O)/C1=C(O)/C=C/c1ccc2c(c1)OCO2 [KKL-1029],0
18,CCOC(=O)COc1ccc2c(c1)c(C(=O)OCC)c(C)n2CC [KKL-1456],0
19,O=C(OC(c1ccccc1)c1nccc2ccccc12)c1cc([N+](=O)[O-])cc([N+](=O)[O-])c1 (stereo not shown) [KKL-0386],1
20,O=C(NCCN1CCOCC1)c1ccc([N+](=O)[O-])cc1[N+](=O)[O-] [KKL-1651],0
21,OC(COCC(F)(F)C(F)(F)C(F)(F)C(F)F)Cn1c2ccc(Cl)cc2c2cc(Cl)ccc21 (stereo not shown) [KKL-1015],0
22,Cc1ccc(Oc2cc(NC(=O)CCCn3nc(C)c([N+](=O)[O-])c3C)cc([N+](=O)[O-])c2)cc1 [KKL-0453],0
23,O=C(NCc1ccco1)c1cc([N+](=O)[O-])cc([N+](=O)[O-])c1 [KKL-1626],0
24,O=C1c2ccccc2C(=O)N1CCCCN(C(=O)c1cc([N+](=O)[O-])cc([N+](=O)[O-])c1)c1ccc(Cl)cc1 [KKL-0362],0
25,CC[C@@H]1C[C@H]2CC[C@H](O2)[C@H](C)C(=O)O[C@@H](C)C[C@@H]2CC[C@@H](O2)[C@@H](C)C(=O)O[C@H](C)C[C@H]2CC[C@H](O2)[C@H](C)C(=O)O[C@@H](C)C[C@@H]2CC[C@@H](O2)[C@@H](C)C(=O)O1 [KKL-0397],0

# 2 of these compounds, reformatted:
row	Compound	% activation [%]
17	O=C1NC(=O)N(CCc2ccccc2)C(=O)/C1=C(O)/C=C/c1ccc2c(c1)OCO2 [KKL-1029]	0
18	CCOC(=O)COc1ccc2c(c1)c(C(=O)OCC)c(C)n2CC [KKL-1456]	0

# Reference: publication PMC12548414
